Source: patent EP1435356A1, “Quinoline derivatives as CRTH2 antagonists” (Warner-Lambert Company LLC, priority 2003, dated 2004)
Some of these results come from one statement about several compounds together.

Each compound was assayed against T1, CRTH2 (Homo sapiens, UniProt Q9Y5Y4) (assay: Binding test (3H-PGD2 competition, SPA)). Conditions: competition with 3H-PGD2 for binding to membranes from CRTH2-expressing L1.2 cells, SPA beads, room temperature, at least 1 hour.
T1 construct: expressed in transfected cells; host or cells: L1.2 cells (membrane preparation)
T1 sequence (Q9Y5Y4 1-395): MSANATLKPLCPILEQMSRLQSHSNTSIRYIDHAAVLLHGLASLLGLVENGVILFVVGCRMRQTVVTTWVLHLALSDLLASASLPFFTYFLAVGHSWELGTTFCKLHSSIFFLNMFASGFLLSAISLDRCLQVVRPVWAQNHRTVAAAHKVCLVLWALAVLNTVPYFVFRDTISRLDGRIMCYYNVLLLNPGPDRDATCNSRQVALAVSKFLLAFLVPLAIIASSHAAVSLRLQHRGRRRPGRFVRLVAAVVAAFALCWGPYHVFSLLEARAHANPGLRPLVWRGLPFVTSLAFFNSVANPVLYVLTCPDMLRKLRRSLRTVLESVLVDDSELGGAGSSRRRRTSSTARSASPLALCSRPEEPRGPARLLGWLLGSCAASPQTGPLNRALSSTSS
CC(=O)N(c1ccccc1)[C@@H]1C[C@H](C)N(C(=O)c2nc(Cl)ccc2Cl)c2ccccc21 (relative stereo) [Example 45, Cis-N-[1-(3,6-Dichloro-pyridine-2-carbonyl)-2-methyl-1,2,3,4-tetrahydro-quinolin-4-yl]-N-phenyl-acetamide] gave an IC50 of under 5 µM.
CC(=O)N(c1ccccc1)[C@@H]1C[C@H](C)N(C(=O)c2cnc(C)cn2)c2ccccc21 (relative stereo) [Example 24, Cis-N-[2-Methyl-1-(5-methyl-pyrazine-2-carbonyl)-1,2,3,4-tetrahydro-quinolin-4-yl]-N-phenyl-acetamide] gave an IC50 of under 5 µM.
In the case of CCCc1cc(C(=O)N2c3ccccc3[C@H](N(C(C)=O)c3ccccc3)C[C@@H]2C)n(C)n1 (relative stereo) [Example 77, Cis-N-[2-Methyl-1-(2-methyl-5-propyl-2H-pyrazole-3-carbonyl)-1,2,3,4-tetrahydro-quinolin-4-yl]-N-phenyl-acetamide], the IC50 is reported as under 5 µM.
CC(=O)N(c1ccccc1)[C@@H]1C[C@H](C)N(C(=O)c2ccc(O)cc2)c2ccccc21 (relative stereo) [Example 6, Cis-N-[1-(4-Hydroxy-benzoyl)-2-methyl-1,2,3,4-tetrahydro-quinolin-4-yl]-N-phenyl-acetamide] gave an IC50 of under 5 µM.
For CC(=O)N(c1ccccc1)[C@@H]1C[C@H](C)N(C(=O)c2ccc3ncccc3c2)c2ccccc21 (relative stereo) [Example 57, Cis-N-[2-Methyl-1-(quinoline-6-carbonyl)-1,2,3,4-tetrahydro-quinolin-4-yl]-N-phenyl-acetamide], the IC50 was under 5 µM.
With CC(=O)N(c1ccccc1)[C@@H]1C[C@H](C)N(C(=O)c2ccc(C#N)cc2)c2ccccc21 (relative stereo) [Example 9, Cis-N-[1-(4-Cyano-benzoyl)-2-methyl-1,2,3,4-tetrahydro-quinolin-4-yl]-N-phenyl-acetamide] the IC50 was under 5 µM.
CC(=O)N(c1ccccc1)[C@@H]1C[C@H](C)N(C(=O)c2cccc3nccnc23)c2ccccc21 (relative stereo) [Example 72, Cis-N-[2-Methyl-1-(quinoxaline-5-carbonyl)-1,2,3,4-tetrahydro-quinolin-4-yl]-N-phenyl-acetamide] gave an IC50 of under 5 µM.
For COc1ncccc1C(=O)N1c2ccccc2[C@H](N(C(C)=O)c2ccccc2)C[C@@H]1C (relative stereo) [Example 21, Cis-N-[1-(2-Methoxy-pyridine-3-carbonyl)-2-methyl-1,2,3,4-tetrahydro-quinolin-4-yl]-N-phenyl-acetamide], the IC50 was under 5 µM.
Compound COc1ccc(N(C(C)=O)[C@@H]2C[C@H](C)N(C(=O)c3ccccc3)c3ccccc32)cc1 (relative stereo) [Example 88, Cis-N-(1-Benzoyl-2-methyl-1,2,3,4-tetrahydro-quinolin-4-yl)-N-(4-methoxy-phenyl)-acetamide] has an IC50 of under 5 µM.
Compound CCOC(=O)Cc1ccc(N(C(C)=O)[C@@H]2C[C@H](C)N(C(=O)c3ccccc3)c3ccccc32)cc1 (relative stereo) [Example 90, Cis-{4-[Acetyl-(1-benzoyl-2-methyl-1,2,3,4-tetrahydro-quinolin-4-yl)-amino]-phenyl}-acetic acid ethyl ester] has an IC50 of under 5 µM.
Compound CC(=O)N(Cc1ccccc1)[C@@H]1C[C@H](C)N(C(=O)c2ccccc2)c2ccccc21 (relative stereo) [Example 79, Cis-N-(1-Benzoyl-2-methyl-1,2,3,4-tetrahydro-quinolin-4-yl]-N-benzyl-acetamide] has an IC50 of under 5 µM.
Work on CC(=O)N(c1ccc(O)cc1)[C@@H]1C[C@H](C)N(C(=O)c2ccccc2)c2ccccc21 (relative stereo) [Example 89, Cis-N-(1-Benzoyl-2-methyl-1,2,3,4-tetrahydro-quinolin-4-yl)-N-(4-hydroxy-phenyl)-acetamide] yielded an IC50 of under 5 µM.
With CC(=O)N(c1ccccc1)[C@@H]1C[C@H](C)N(C(=O)c2cc(C)oc2C)c2ccccc21 (relative stereo) [Example 60, Cis-N-[1-(2,5-Dimethyl-furan-3-carbonyl)-2-methyl-1,2,3,4-tetrahydro-quinolin-4-yl]-N-phenyl-acetamide] the IC50 was under 5 µM.
CC(=O)N(c1ccccc1)[C@@H]1C[C@H](C)N(C(=O)c2ccnc3ccccc23)c2ccccc21 (relative stereo) [Example 70, Cis-N-[2-Methyl-1-(quinoline-4-carbonyl)-1,2,3,4-tetrahydro-quinolin-4-yl]-N-phenyl-acetamide] showed an IC50 of under 5 µM.
Work on CC(=O)N(c1ccccc1)[C@@H]1C[C@H](C)N(C(=O)c2cncc(F)c2)c2ccccc21 (relative stereo) [Example 63, Cis-N-[1-(5-Fluoro-pyridine-3-carbonyl)-2-methyl-1,2,3,4-tetrahydro-quinolin-4-yl]-N-phenyl-acetamide] yielded an IC50 of under 5 µM.
CC(=O)N(c1ccccc1)[C@@H]1C[C@H](C)N(C(=O)c2cccn2C)c2ccccc21 (relative stereo) [Example 34, Cis-N-[2-Methyl-1-(1-methyl-1H-pyrrole-2-carbonyl)-1,2,3,4-tetrahydro-quinolin-4-yl]-N-phenyl-acetamide] showed an IC50 of under 5 µM.
CC(=O)N(c1ccccc1)[C@@H]1C[C@H](C)N(C(=O)c2ccc(C(F)(F)F)cc2)c2ccccc21 (relative stereo) [Example 7, Cis-N-[2-Methyl-1-(4-trifluoromethyl-benzoyl)-1,2,3,4-tetrahydro-quinolin-4-yl]-N-phenyl-acetamide] gave an IC50 of under 5 µM.
CC(=O)N(C1CC1)[C@@H]1C[C@H](C)N(C(=O)c2cccnc2)c2ccccc21 (racemic) [Example 95, Cis-N-Cyclopropyl-N-[2-methyl-1-(pyridine-3-carbonyl)-1,2,3,4-tetrahydro-quinolin-4-yl]-acetamide] showed an IC50 of under 5 µM.
With CC(=O)N(c1ccccc1)[C@@H]1C[C@H](C)N(C(=O)c2ccc(Cl)nc2Cl)c2ccccc21 (relative stereo) [Example 30, Cis-N-[1-(2,6-Dichloro-pyridine-3-carbonyl)-2-methyl-1,2,3,4-tetrahydro-quinolin-4-yl]-N-phenyl-acetamide] the IC50 was under 5 µM.
CC(=O)N(c1ccccc1)C1CCN(C(=O)c2ccccc2)c2ccccc21 (stereo not drawn) [Example 100, Cis-N-(1-Benzoyl-1,2,3,4-tetrahydro-quinolin-4-yl)-N-phenyl-acetamide] gave an IC50 of under 5 µM.
Compound CC(=O)N(c1ccccc1)[C@@H]1C[C@H](C)N(C(=O)c2ccc(C(F)(F)F)nc2)c2ccccc21 (relative stereo) [Example 19, Cis-N-[2-Methyl-1-(6-trifluoromethyl-pyridine-3-carbonyl)-1,2,3,4-tetrahydro-quinolin-4-yl]-N-phenyl-acetamide] has an IC50 of under 5 µM.
Compound CC(=O)N(c1ccccc1)[C@@H]1C[C@H](C)N(C(=O)c2ccc(OCC(F)(F)F)nc2)c2ccccc21 (relative stereo) [Example 27, Cis-N-[2-Methyl-1-(6-(2,2,2-trifluoro-ethoxy)-pyridine-3-carbonyl)-1,2,3,4-tetrahydro-quinolin-4-yl]-N-phenyl-acetamide] has an IC50 of under 5 µM.
Work on CC(=O)N(c1ccccc1)[C@@H]1C[C@H](C)N(C(=O)c2cc(C)n(C)n2)c2ccccc21 (relative stereo) [Example 39, Cis-N-[1-(1,5-Dimethyl-1H-pyrazole-3-carbonyl)-2-methyl-1,2,3,4-tetrahydro-quinolin-4-yl]-N-phenyl-acetamide] yielded an IC50 of under 5 µM.
